Test results: paper PMC4589357, “The Role of Electrostatic Interactions in Binding of Histone H3K4me2/3 to the Sgf29 Tandem Tudor Domain” (PLoS ONE, 2015)
These are yes or no findings as the source states them, for the method shown. Sequences can lack the tags named with a protein. Blank lines part the entries; values can stand above or below the binder they belong to.

Molecular target: T1, Sgf29 D266W variant, residues 115-293 (human, UniProt Q96ES7 115-293, D266W)
T1 construct: source: E. coli Rosetta BL21 DE3 PlysS, purified (Ni-NTA, TEV cleavage, SEC Superdex 75)
T1 sequence (looked up): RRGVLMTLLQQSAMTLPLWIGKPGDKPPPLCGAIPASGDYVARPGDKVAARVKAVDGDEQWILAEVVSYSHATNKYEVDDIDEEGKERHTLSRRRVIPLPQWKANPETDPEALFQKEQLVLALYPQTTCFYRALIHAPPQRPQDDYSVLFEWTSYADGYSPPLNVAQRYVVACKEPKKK
Test: ITC; peptide (generally 1.2 mM) titrated to protein (100 uM); for variants of low affinity 2.4 mM peptide to 200 uM protein; 25 mM TRIS pH 8.0, 50 mM NaCl, 1 mM DTT; one-site model; both purified

binding: no binding (tested: K d > 200 μM)
B1: 10-mer histone 3 peptide H3K4me2 (ARTKme2QTARKS) (peptide)
peptide: ARTKQTARKS
modifications: dimethyllysine (Kme2) at position 4; carboxylic acid at the C terminus

binding: no binding (tested: K d > 200 μM)
B2: 10-mer histone 3 peptide H3K4me3 (ARTKme3QTARKS) (peptide)
peptide: ARTKQTARKS
modifications: trimethyllysine (Kme3) at position 4; carboxylic acid at the C terminus
